The record followed here is PubChem BioAssay AID1347423 (Functional Genomics Laboratory (NCATS/FGL), 2020).

Hit rate of the full screen: of about 52,000 sequences, about 210 (0.4%) were called active.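 How the source made its calls: active means gene whose silencing raises cell survival under the drug, median off-target-corrected z-score across its silencing RNAs 2 or more; inactive means the rest.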 This is one part of the list.

The nature of the assay: Resistance to Poly (ADP-Ribose) Polymerase inhibitor: Gene Identification via Genome-wide siRNA Screen. The note with it: mouse BRCA2 R2336H ES cells, olaparib, CellTiter-Glo viability; stronger effect = higher value. The procedure, abridged: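 Mouse BRCA2 R2336H ES cells were reverse-transfected with siRNA (20 nM final), treated at 48 h with 500 nM olaparib, and read by CellTiter-Glo after 72 h. Scores: MAD-based z per siRNA, median per gene, seed off-target correction.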
In the case of GAUGUUGGCUCAUCUAGUATT against Olfr1340, the z-score is inactive: -0.446. As for CCACCAAUGAGUACGUCUATT against Prkcsh, the z-score was inactive: -1.57. In the case of CCGGAGAUGGUUGCGUAGATT against Cdkn1c, the z-score was inactive: 1.12. On to “GCCCAAGACGACAUGAACUTT against F830029L24Rik”, for which the z-score is inactive: 1.17. GGAUGAGGUUCUGAAAAUCTT against Rps2: the z-score was inactive: -3.5.

As for “GCCAUAUUGCUGUUUGCAATT against 4930428O21Rik”, the z-score was inactive: -0.791.

Take GGCUAUGAUGAUUAUAAUGTT against Hnrph1: the z-score was inactive: 0.923. As to GGCCUUUGUUUCUAAGUACTT against Plag1, the z-score was inactive: -1.77. Regarding GGAAGACCGUACUAUGUUUTT against Gtl2, the z-score is inactive: -2.38. Regarding GGAAGAAAACAAGUAAAACTT against Ccr4, the z-score was inactive: 0.171. For “GGACUCUGAUCUGGAGUAGTT against D630035O19Rik”, the z-score is inactive: 0.309. To GGUGAAAUACCCGUCUUAUTT against Cyp2f2 belongs inactive: -1.82; to GCGUGGUAUGGUAAAAGUUTT against Arx, inactive: -0.967. On to GGACCUUAUUGAUUCUCUATT against Tex21, for which the z-score is inactive: -0.626. GGACGGGAAAUUUUUGAUCTT against Rnf149: the z-score is inactive: -0.299. “GGAGAAGAAGAACUACUGCTT against A930041G11Rik”: the z-score is inactive: 0.691. Consider GGUGAUUGACUUGCCAGGATT against Fn3k, for which the z-score was inactive: -0.589. The result for CCGAUUCAGGUUUCUGUCUTT against Cdc25a reads inactive: 0.693; that for GGAUUUUGUGAGUGUAAGATT against Ntng1, inactive: -0.353. On to GCGAGGAAUAACCCAGAUCTT against Olfr503, for which the z-score was inactive: -1.76.

With GCUGACUCCGUGUUUUUAATT against Arhgef18, the z-score is inactive: -0.518. In the case of GGUGAGCGACAAUAUGAGUTT against MGC58341, the z-score was inactive: -0.928.

Turning to GGGAGUUUGACAUUUUCGATT against Lect2, the z-score was inactive: 0.0814. With “GGCUCCACCAAAGCCUGUUTT against 2310066N05Rik”, the z-score is inactive: -2.31.

Turning to GGUGGUCAGGAAAUGAGUCTT against Lrch4, the z-score was inactive: -0.0125. In the case of GCAUUGUGUCACAAAAUUUTT against Pde5a, the z-score was inactive: 0.645. As to “GGACCAUGUGACAAAGCCUTT against 6330503C03Rik”, the z-score was inactive: 0.788.

For “CCUGCCUGGACUAUCAAGATT against A530095I07Rik”, the z-score is inactive: 1.06. For the sequence GGCUGUCGGUUCAUUAACCTT against Atad1, the z-score is inactive: 1.86. The result for GCCUCUGAACUGAAAAAAATT against BC054438 reads inactive: -0.172. Take CCUAUGUUUGGUGAUUAUGTT against Alg6: the z-score was inactive: -0.95.

GCUAGAUCUCACCAAACUUTT against Ddx21: the z-score was inactive: 0.391.

Regarding CCUAUCGAGUGAAAGUAAATT against Abcg2, the z-score was inactive: -0.876. As for GGAACUCAAGUUGUCUAUGTT against Plekhb2, the z-score is inactive: -2.39. Turning to CCAUUGACUCAGUUAAAACTT against Semcap2, the z-score is inactive: 0.306. The result for GGUGAAAUUCUGAAUGAAATT against Pet112l reads inactive: 1.27; that for GCCAUGUUCAAAUUGACGGTT against Pik4ca, inactive: 0.256.

For the sequence CCUCUCAAGAAAUCGUGCATT against Trim47, the z-score is inactive: 1.24.

Take GCAAAAUUGGUUCCAAUGGTT against Rad51: the z-score is inactive: -2.26. For CCAAUACUAUACCAACUGCTT against Cacna1g, the z-score was inactive: -0.207. As for GGUCUAAGUCUGAAUGGCCTT against Agrp, the z-score was inactive: 0.884.

Take GCUUGUUAGUUUAAUUAGGTT against Elovl5: the z-score is inactive: 0.18.

Regarding “GGAAAAGAAAGAUGUGACUTT against 1810044A24Rik”, the z-score was inactive: -0.637. GGAGAUACCCAAUCUCAGATT against Eapa2: the z-score was inactive: 0.245. For the sequence GAAAGAAAAUCGUGUCAGATT against Olfr1199, the z-score was inactive: 0.5. On to CCGAGCUUAUCGACAGGUATT against Stk24, for which the z-score was inactive: 1.96. For GCAAUAAUGAGACCUGCACTT against Edem1, the z-score was inactive: -1.37.

GGUUUGAGCCACCUACUAUTT against Bcdo2: the z-score is inactive: 0.661.

For the sequence CGUGACCUGAAAGUAUUUGTT against Gpc3, the z-score was inactive: 0.589. Regarding CGAGAAGAUUACCAUAAAUTT against Homez, the z-score is inactive: -0.437. To “GGAGUUUUAUGCUGAGCAGTT against 2510005D08Rik” belongs inactive: 0.767; to GCUCUCUGCACCAGAGUAUTT against BC048082, inactive: -2.74.

For the sequence “GGAUGAGCAAGAAAUCCCUTT against 3110023B02Rik”, the z-score is inactive: 0.444. Consider GGCAUCCAUCAACAACAGGTT against Ahsa1, for which the z-score is inactive: 0.188. The result for GGAAUACUAUGACAGGAAGTT against Tnfrsf1b reads inactive: -2.79; that for GGUUUUGCUAGUAAGAAAGTT against Trim3, inactive: -0.122.

For GCUGUGGUUGUCCAACAAGTT against Il17b, the z-score is inactive: 1.58. Turning to GGCUCAAAAGUCUUGGGACTT against Hells, the z-score is inactive: -0.169. To “GGACUUUAAGCUCGACUUCTT against A030007L17Rik” belongs inactive: -0.067.

In the case of GGGUAAGAAGAACAUGUAGTT against Tgfbi, the z-score is inactive: 0.859. Turning to GGAACUAAUUUUCACAGAGTT against Lmod2, the z-score is inactive: 0.88. As for “CCACUGAAGACGUGAAGCUTT against 2610040C18Rik”, the z-score is inactive: -1.9.

Consider GGUGAUAUUCUUUAAAGACTT against Mmp1b, for which the z-score is inactive: 0.57.

For the sequence GGUGGUGAAGAAUUUUCUUTT against Serpini1, the z-score is inactive: 1.19. Take GCAAUGGUGGUUCUAAUAUTT against Cmya5: the z-score is inactive: -1.85. For GGGAACAUUAUGUGCUGGCTT against Pou2af1, the z-score is inactive: 0.934.

As for “GAACAUGGCUUGCUUCAGATT against 1500011K16Rik”, the z-score is inactive: 0.739. As for GCUGCACAACCUUUAUCAATT against Spata4, the z-score is inactive: 1.21.

Regarding “GCUGCUAAGUGAAUCCAACTT against 2410127E16Rik”, the z-score was inactive: -0.0876. Consider GCUUUCAAGGGAUGAUUCATT against Zc3hav1, for which the z-score is inactive: -0.835.

Consider GGAGAAAAUAAGCUGGUAGTT against Slc35f1, for which the z-score is inactive: 0.229. To GGUCAAGGAGAUCACCUUCTT against Comp belongs inactive: -0.501. For the sequence GCCAUGUUUAAGCAAUUGUTT against Vsx1, the z-score is inactive: 0.537. To GCACUGAGCUUGACAAAGATT against Upp2 belongs inactive: -0.404. Take “GCCAUAGCAUAGCUCCCAGTT against 5330408N05Rik”: the z-score was inactive: 1.74. In the case of “GGAAGACAUACUGUUGAAATT against 1110005A03Rik”, the z-score was inactive: -0.533. In the case of GGAUAGCUCUAUUAUCUCUTT against Serpinb3c, the z-score was inactive: -1.63. On to GGGAGGACAGUCAUUGGUUTT against Phldb1, for which the z-score was inactive: -0.723. Take GGGAAACACAAUUUACCUUTT against Elf1: the z-score is inactive: 0.951. For the sequence GCUCCAGGGAGUUAACUGUTT against Osr2, the z-score is inactive: -0.95. As for “GGUUUUUAAGGGAAGGCCCTT against 2610205E22Rik”, the z-score is inactive: 0.312.

Turning to GGACGUGAGCUCUCUCUUCTT against Ap2b1, the z-score was inactive: -0.227. On to GGGAAUUCGUCUCUAGAUATT against Cabyr, for which the z-score is inactive: -0.149. Regarding GGUGCUAGGAAUGAACGGGTT against Ripply1, the z-score was inactive: 0.323. Turning to “GCAUGUGUAUGAUAAGAUCTT against 2700023J09Rik”, the z-score is inactive: 0.422. In the case of GGGAAAUGGAGAGAUUUUUTT against Tnpo1, the z-score is inactive: 1.61. On to CCCAGAGCUCCAAUUGCCUTT against Olfr938, for which the z-score was inactive: -1. In the case of “CCAUUUUUGAGUAUGUUGGTT against C430003P19Rik”, the z-score was inactive: 0.101. “GCCUCAUCCCUAUAGUCCUTT against 1700026L06Rik”: the z-score was inactive: 0.895.

For GGAAAAGAAUUUCCUCCCUTT against Aspa, the z-score was inactive: 2.13. Take GCAGAUACUGAGAUGCUAUTT against Dkk4: the z-score was inactive: -0.264. “GGAAAUGGGUCUUGAAGUUTT against C330018J07Rik”: the z-score is inactive: 1.57. As to CCUGACAGUAGUUACAGUATT against Olfr1080, the z-score was inactive: -0.363. For the sequence GGGAGACAUUCAUUAUCAGTT against Viaat, the z-score is inactive: 0.562.

For the sequence GGGAGGAACCUUUGAGAAUTT against Spats2, the z-score is inactive: 0.341. For GGUAGAGAACCAGAGGCAUTT against Ninj2, the z-score is inactive: -1.57.

With GGCACUCAAAAACUGUGAGTT against Mrps7, the z-score is inactive: 0.0954.

Regarding CCAAGAACUAUAUUUCUUCTT against Tars, the z-score is inactive: -0.618.

For the sequence GGAAGUGAAUGGACAGCCATT against Mpp2, the z-score was inactive: -1.88. With CCUCUCUCAACCAGUGAAATT against Grb7, the z-score is inactive: -1.25.

In the case of GGAGAAAGAGACGGACAACTT against Fgfr1, the z-score was inactive: 0.843.

Turning to GGAGAAGCUACUCAACAAUTT against Ndufs8, the z-score was inactive: 0.448. In the case of GCCACUGGUUCACCAUGCATT against Ugt1a12, the z-score is inactive: -0.351. To GGACCUGAGUGUGUCUCAGTT against Serpina3m belongs inactive: 0.445.
